{"source": "PubChem BioAssay AID493246 (Drosophila RNAi Screening Center, 2011)", "screen": "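Genes fly cells need to grow and stay alive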 (primary screen)", "system": "Drosophila Kc and S2R+ cells", "reagents": "long dsRNA against Drosophila genes", "detection": "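Cell number per well after knock-down, printed as raw plate values; calls were based on per-plate z-scores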", "reading the numbers": "Kc cell number and S2R+ cell number: higher = more cells remaining", "hit rule": "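Active when the per-plate z-score of cell number is 3 or more in the direction of fewer cells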", "note": "In all, the deposit lists about 21,000 reagents; this is an unselected part of those with a known target gene and a result. In the full data, 429 (2%) got an active call. 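Values are raw and not normalised between plates; calls rest on per-plate z-scores that were not deposited.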 Reagents against one gene are numbered here. Not given: the amount of reagent, the time to read-out."}
{"gene knocked down": "ERR (GeneID 38912)", "reagent no.": 1, "Kc cell number, rep 1": 1.30e6, "Kc cell number, rep 2": 1.41e6, "S2R+ cell number, rep 1": 1.36e6, "S2R+ cell number, rep 2": 1.30e6, "Call": "inactive"}
{"gene knocked down": "CG42843 (retired record) (GeneID 10178904)", "reagent no.": 1, "Kc cell number, rep 1": 1.40e6, "Kc cell number, rep 2": 1.51e6, "S2R+ cell number, rep 1": 1.02e6, "S2R+ cell number, rep 2": 1.11e6, "Call": "inactive"}
{"gene knocked down": "CG42843 (retired record) (GeneID 10178904)", "reagent no.": 2, "Kc cell number, rep 1": 1.68e6, "Kc cell number, rep 2": 1.67e6, "S2R+ cell number, rep 1": 1.14e6, "S2R+ cell number, rep 2": 1.22e6, "Call": "inactive"}
{"gene knocked down": "CG42843 (retired record) (GeneID 10178904)", "reagent no.": 3, "Kc cell number, rep 1": 1.49e6, "Kc cell number, rep 2": 1.55e6, "S2R+ cell number, rep 1": 1.18e6, "S2R+ cell number, rep 2": 1.27e6, "Call": "inactive"}
{"gene knocked down": "nrm (GeneID 40515)", "reagent no.": 1, "Kc cell number, rep 1": 1.47e6, "Kc cell number, rep 2": 1.58e6, "S2R+ cell number, rep 1": 1.17e6, "S2R+ cell number, rep 2": 1.40e6, "Call": "inactive"}
{"gene knocked down": "nrm (GeneID 40515)", "reagent no.": 2, "Kc cell number, rep 1": 1.46e6, "Kc cell number, rep 2": 1.57e6, "S2R+ cell number, rep 1": 1.19e6, "S2R+ cell number, rep 2": 1.37e6, "Call": "inactive"}
{"gene knocked down": "nrm (GeneID 40515)", "reagent no.": 3, "Kc cell number, rep 1": 1.41e6, "Kc cell number, rep 2": 1.69e6, "S2R+ cell number, rep 1": 1.20e6, "S2R+ cell number, rep 2": 1.33e6, "Call": "inactive"}
{"gene knocked down": "CG33489 (GeneID 2768971)", "reagent no.": 1, "Kc cell number, rep 1": 1.31e6, "Kc cell number, rep 2": 1.42e6, "S2R+ cell number, rep 1": 1.34e6, "S2R+ cell number, rep 2": 1.35e6, "Call": "inactive"}
{"gene knocked down": "Octbeta1R (GeneID 42652)", "reagent no.": 1, "Kc cell number, rep 1": 1.28e6, "Kc cell number, rep 2": 1.26e6, "S2R+ cell number, rep 1": 8.85e5, "S2R+ cell number, rep 2": 9.71e5, "Call": "inactive"}
{"gene knocked down": "CG33235 (GeneID 2768871)", "reagent no.": 1, "Kc cell number, rep 1": 1.59e6, "Kc cell number, rep 2": 1.54e6, "S2R+ cell number, rep 1": 1.03e6, "S2R+ cell number, rep 2": 1.11e6, "Call": "inactive"}
{"gene knocked down": "eas (GeneID 32585)", "reagent no.": 1, "Kc cell number, rep 1": 1.66e6, "Kc cell number, rep 2": 1.65e6, "S2R+ cell number, rep 1": 1.17e6, "S2R+ cell number, rep 2": 1.34e6, "Call": "inactive"}
{"gene knocked down": "CG17283 (GeneID 42094)", "reagent no.": 1, "Kc cell number, rep 1": 1.32e6, "Kc cell number, rep 2": 1.45e6, "S2R+ cell number, rep 1": 1.21e6, "S2R+ cell number, rep 2": 1.37e6, "Call": "inactive"}
{"gene knocked down": "CG4363 (GeneID 37488)", "reagent no.": 1, "Kc cell number, rep 1": 1.54e6, "Kc cell number, rep 2": 1.58e6, "S2R+ cell number, rep 1": 1.26e6, "S2R+ cell number, rep 2": 4.15e5, "Call": "inactive"}
{"gene knocked down": "CG31924 (GeneID 319030)", "reagent no.": 1, "Kc cell number, rep 1": 1.60e6, "Kc cell number, rep 2": 1.64e6, "S2R+ cell number, rep 1": 1.07e6, "S2R+ cell number, rep 2": 1.24e6, "Call": "inactive"}
{"gene knocked down": "Tsp42Ek (GeneID 35621)", "reagent no.": 1, "Kc cell number, rep 1": 1.43e6, "Kc cell number, rep 2": 1.53e6, "S2R+ cell number, rep 1": 1.24e6, "S2R+ cell number, rep 2": 1.34e6, "Call": "inactive"}
{"gene knocked down": "CG13766 (GeneID 33922)", "reagent no.": 1, "Kc cell number, rep 1": 1.50e6, "Kc cell number, rep 2": 1.41e6, "S2R+ cell number, rep 1": 1.08e6, "S2R+ cell number, rep 2": 1.21e6, "Call": "inactive"}
{"gene knocked down": "Rbp1 (GeneID 41294)", "reagent no.": 1, "Kc cell number, rep 1": 1.59e6, "Kc cell number, rep 2": 1.63e6, "S2R+ cell number, rep 1": 1.27e6, "S2R+ cell number, rep 2": 1.41e6, "Call": "inactive"}
{"gene knocked down": "Rbp (GeneID 41880)", "reagent no.": 1, "Kc cell number, rep 1": 9.14e5, "Kc cell number, rep 2": 9.61e5, "S2R+ cell number, rep 1": 4.99e5, "S2R+ cell number, rep 2": 5.24e5, "Call": "active"}
{"gene knocked down": "Rbp (GeneID 41880)", "reagent no.": 2, "Kc cell number, rep 1": 1.57e6, "Kc cell number, rep 2": 1.61e6, "S2R+ cell number, rep 1": 1.12e6, "S2R+ cell number, rep 2": 1.21e6, "Call": "inactive"}
{"gene knocked down": "CG3156 (GeneID 30994)", "reagent no.": 1, "Kc cell number, rep 1": 5.26e5, "S2R+ cell number, rep 1": 8.08e5, "Call": "inactive"}
{"gene knocked down": "Not10 (GeneID 41552)", "reagent no.": 1, "Kc cell number, rep 1": 1.57e6, "Kc cell number, rep 2": 1.60e6, "S2R+ cell number, rep 1": 1.23e6, "S2R+ cell number, rep 2": 1.33e6, "Call": "inactive"}
